Results from patent US20220143204A1.
These are yes or no findings as the source states them, for the method shown. Some binding calls cover weakened binding; strength is not graded here.

Protein sequences, listed by entry. Tags and fused reporters are not part of them. Residues count along the entry.
UniProt P11717, residues 41-2491: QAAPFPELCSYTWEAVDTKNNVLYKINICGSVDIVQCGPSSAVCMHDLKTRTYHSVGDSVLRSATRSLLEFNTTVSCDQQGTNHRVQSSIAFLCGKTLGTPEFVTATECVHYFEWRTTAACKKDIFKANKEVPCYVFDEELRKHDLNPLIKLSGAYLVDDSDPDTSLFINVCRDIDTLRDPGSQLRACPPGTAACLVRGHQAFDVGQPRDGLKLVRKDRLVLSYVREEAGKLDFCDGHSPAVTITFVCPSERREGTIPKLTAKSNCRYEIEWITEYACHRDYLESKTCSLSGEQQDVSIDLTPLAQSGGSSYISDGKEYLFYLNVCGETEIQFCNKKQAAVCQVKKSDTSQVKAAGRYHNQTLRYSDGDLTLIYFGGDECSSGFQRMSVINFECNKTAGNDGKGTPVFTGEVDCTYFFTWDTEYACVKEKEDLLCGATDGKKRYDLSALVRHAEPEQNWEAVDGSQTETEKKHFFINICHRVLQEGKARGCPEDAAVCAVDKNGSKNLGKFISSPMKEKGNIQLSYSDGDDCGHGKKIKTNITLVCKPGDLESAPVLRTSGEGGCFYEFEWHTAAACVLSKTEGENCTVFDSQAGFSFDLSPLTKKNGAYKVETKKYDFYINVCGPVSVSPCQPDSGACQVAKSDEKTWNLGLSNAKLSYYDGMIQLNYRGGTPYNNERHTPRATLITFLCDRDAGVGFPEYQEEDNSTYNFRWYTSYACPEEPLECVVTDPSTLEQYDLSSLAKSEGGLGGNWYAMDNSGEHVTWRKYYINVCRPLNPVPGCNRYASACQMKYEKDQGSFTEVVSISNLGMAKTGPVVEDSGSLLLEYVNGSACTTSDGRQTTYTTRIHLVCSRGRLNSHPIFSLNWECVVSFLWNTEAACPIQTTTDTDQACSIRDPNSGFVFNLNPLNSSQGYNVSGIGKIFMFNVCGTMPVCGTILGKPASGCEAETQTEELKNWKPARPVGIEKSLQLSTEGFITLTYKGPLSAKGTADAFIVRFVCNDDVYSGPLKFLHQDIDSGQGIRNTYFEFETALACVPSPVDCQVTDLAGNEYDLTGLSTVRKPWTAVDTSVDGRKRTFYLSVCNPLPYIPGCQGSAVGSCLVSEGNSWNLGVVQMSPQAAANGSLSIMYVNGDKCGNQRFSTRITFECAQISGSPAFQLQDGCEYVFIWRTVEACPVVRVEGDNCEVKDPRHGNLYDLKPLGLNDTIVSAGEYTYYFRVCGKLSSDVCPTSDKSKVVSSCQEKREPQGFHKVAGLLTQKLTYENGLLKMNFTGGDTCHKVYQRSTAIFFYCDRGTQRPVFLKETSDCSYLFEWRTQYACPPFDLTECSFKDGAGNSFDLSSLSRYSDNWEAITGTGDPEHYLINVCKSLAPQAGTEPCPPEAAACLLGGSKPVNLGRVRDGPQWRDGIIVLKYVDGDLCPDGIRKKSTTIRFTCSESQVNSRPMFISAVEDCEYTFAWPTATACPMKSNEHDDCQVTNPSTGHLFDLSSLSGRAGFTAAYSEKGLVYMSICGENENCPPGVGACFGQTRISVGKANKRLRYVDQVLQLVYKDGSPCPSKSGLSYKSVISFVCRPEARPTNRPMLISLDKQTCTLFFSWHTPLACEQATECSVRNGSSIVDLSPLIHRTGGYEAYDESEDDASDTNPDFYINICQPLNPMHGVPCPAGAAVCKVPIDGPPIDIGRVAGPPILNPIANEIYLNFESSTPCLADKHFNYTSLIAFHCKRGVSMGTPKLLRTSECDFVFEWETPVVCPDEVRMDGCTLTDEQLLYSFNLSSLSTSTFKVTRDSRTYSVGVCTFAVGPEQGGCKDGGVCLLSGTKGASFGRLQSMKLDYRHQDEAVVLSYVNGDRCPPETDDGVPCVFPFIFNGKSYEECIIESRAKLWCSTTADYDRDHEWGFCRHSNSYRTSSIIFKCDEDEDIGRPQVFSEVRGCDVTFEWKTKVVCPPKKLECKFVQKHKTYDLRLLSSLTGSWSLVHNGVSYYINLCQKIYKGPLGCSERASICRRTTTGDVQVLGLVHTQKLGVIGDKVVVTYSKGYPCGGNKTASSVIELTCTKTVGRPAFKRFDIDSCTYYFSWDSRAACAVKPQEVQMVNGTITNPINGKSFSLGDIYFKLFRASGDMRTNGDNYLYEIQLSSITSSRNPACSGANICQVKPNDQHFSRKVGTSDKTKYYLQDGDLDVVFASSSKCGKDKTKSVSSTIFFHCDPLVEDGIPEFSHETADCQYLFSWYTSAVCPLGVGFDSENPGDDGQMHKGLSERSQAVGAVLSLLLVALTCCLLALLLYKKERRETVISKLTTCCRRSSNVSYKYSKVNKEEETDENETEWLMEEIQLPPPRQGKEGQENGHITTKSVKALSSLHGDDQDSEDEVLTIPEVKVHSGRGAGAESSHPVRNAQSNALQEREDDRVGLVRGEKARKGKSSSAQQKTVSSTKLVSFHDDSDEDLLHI

Key:
rat IGF2R on cells (rat) [1] = test: binding assay of the IRDye800CW conjugate on SCC VII cells over-expressing rat IGF2R, fluorescence intensity
[2] = biological target: human IGF2R on cells (human) (UniProt P11717); test: binding assay of the IRDye800CW conjugate on SCC VII cells transfected with human IGF2R, fluorescence at 800 nm
rat IGF2R on cells (rat) [3] = test: staining of liver cryo-sections of BDL rats, confocal microscopy

B1: 13F11-13E8-IRDye800CW (VHH, not shown: small tags and cut ends)
chain: EVQLVESGGRLVQPGDSLRLSCAASGRTFSDNAMGWFRQAPGKERRFVAGISWAGGSTYYSDSVKGRFTISRDNAKNTVYLQMNSLKPEDTAVYYCAAGLRAWVQRMPKDYNYWGQGTQVTVSSGGGGSGGGGSGGGGSEVQLVESGGGLVQAGGSLRLSCAASRSISPMGWYRQAPGKQRELVAIMPSSGPPIYADSVQGRFTISRDNAKNTVYLQMNSLKPEDTAVYYCNVGGGYWGQGTQVTVSS
modifications: IRDye800CW by maleimide chemistry on the C-terminal free cysteine
binding (rat IGF2R on cells (rat) [1]): binds

B2: SP28P-SP26P-IRDye800CW (VHH, not shown: small tags and cut ends)
chain: EVQLVESGGGLVQAGGSLRLSCAASGSIVSFNGINWYRQAPGKQREWVGGITQGGNTMYADSVRGRFTISRDNTKNTMYLQMNSLKPEDTAVYYCRRPPVASWGQGTQVTVSSGGGGSGGGGSGGGGSEVQLVESGGGLVQAGGSLRLSCAASGRSFSSSVMGWFRQTPGKEREFVAATRWTAASTHYADSVKGRFTISRDHAENAVFLQMNSLKPEDTAVYYCAAGNYLDTAQYRYNYWGQGTQVTVSS
modifications: IRDye800CW by maleimide chemistry on the C-terminal free cysteine
binding [2]: no binding (tested: 500 nM)

B3: 13F11-13E8 conjugated to Alexa Fluor 647 (VHH, not shown: small tags and cut ends)
chain: B1 chain
modifications: Alexa Fluor 647 by maleimide chemistry on the C-terminal free cysteine
binding (rat IGF2R on cells (rat) [3]): binds
